About 5,500 (1.4%) of roughly 400,000 compounds were called active. This list was built around the results that the source calls inconclusive (neither active nor inactive); the mix of calls is not that of the screen. Calls follow the shape of the dose curve; as a rule, active = well fitted cell-killing curve with a large enough effect; inconclusive = small, poorly fitted or top-dose-only effect, or effect the other way; inactive = flat fitted curve, though single readings scatter. A potency beside an inconclusive call is a rough fit, not a confirmed value.
test: qHTS assay for MDR1-selective chemotherapeutics: Primary screen using the parental adenocarcinoma cell KB-3-1; details: KB-3-1 viability, CellTiter-Glo ATP luminescence, 72 h; series mostly up to 46.1 µM; also: nearly all actives have a fitted effect of over 60% in size
Method in brief: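 Luminescent ATP read-out (CellTiter-Glo) measures survival of drug-naive KB-3-1 cells after 72 h compound exposure at 37 °C. Titration series was screened from lowest to highest concentration, with DMSO vehicle plates as background controls.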
Potency is read from the fitted curve at half-maximal effect.

| SMILES | Potency |
| --- | --- |
| Cc1ccc(C(=O)Nc2ccc(Br)cc2)cc1S(=O)(=O)N1CCOCC1 | active: 10.3 µM |
| CCOc1cc(C2C(C(=O)OC)=CN(Cc3ccc(Cl)cc3)C=C2C(=O)OC)ccc1O | inactive |
| CCOCCCn1c(SCC(=O)NCc2ccc3c(c2)OCO3)nc2ccccc2c1=O | inactive |
| COc1ccc(SC[C@H](CC(C)C)N2CCN(CCc3ccccc3)CCC2=O)cc1 | inconclusive: 29.1 µM [cytotoxic, single point] |
| CCN(CC(=O)NCc1cccs1)C(=O)c1ccc(S(=O)(=O)Nc2ccccc2)cc1 | inactive |
| COc1ccc(N=Cc2nc(-c3ccco3)oc2O)cc1 | inactive |
| COCCn1c(SCC(=O)/C=C2\N(C)c3ccccc3C2(C)C)nnc1-c1ccncc1 | inactive |
| CCc1ccccc1OCC(=O)Nc1nnc(C2CC2)s1 | inconclusive: 18.4 µM [rising, partial curve, poor fit] |
| COc1cc2c(cc1OC)CN(C(=O)c1cc(=O)c3ccccc3o1)CC2 | active: 2.91 µM |
| CCCOc1ccccc1C1NC(=O)NC(C)=C1C(=O)OCc1ccccc1 (stereo unspecified) | inactive |
| CCNC(=O)c1cc2c(c(-c3cccc(-c4cc5ccccc5o4)c3)n1)[C@H](CCO)N(C(=O)NC(C)C)C2 | inconclusive: 18.4 µM [cytotoxic, single point] |
| c1ccc(C(c2cccs2)c2c[nH]c3ccccc23)cc1 (stereo unspecified) | inconclusive: 20.6 µM [cytotoxic, single point] |
| CCC(c1nnnn1-c1ccc2c(c1)OCCO2)N1CCN(c2ccccc2OC)CC1 (stereo unspecified) | inconclusive: 25.9 µM [cytotoxic, partial curve, poor fit] |
| COc1cc(-c2cc3nc(NCCOc4ccccc4)ccn3n2)cc(OC)c1OC | inconclusive: 20.6 µM [cytotoxic, single point] |
| C[C@H](CO)N1C[C@H](C)[C@@H](CN(C)S(=O)(=O)c2ccccc2)Oc2c(NC(=O)Nc3ccccc3)cccc2C1=O | inactive |
| Oc1ccc(Cl)cc1Sc1cc(Cl)ccc1O | inconclusive: 29.1 µM [cytotoxic, single point] |
| CCCC(Oc1ccc(Br)cc1)c1nc2c3cc(OC)c(OC)cc3nc(=S)n2[nH]1 (stereo unspecified) | inconclusive: 29.1 µM [cytotoxic, single point] |
| CC(=O)c1cccc(NC(=O)C(Sc2ncnc3ccccc23)c2ccccc2)c1 (stereo unspecified) | inactive |
| O=C(N/N=C/c1ccccc1O)C1CC(=O)N(c2ccc(F)cc2)C1 (stereo unspecified) | inconclusive: 18.4 µM [cytotoxic, single point] |
| CCC(NC(=O)c1ccc2nc(Cc3ccc(OC)cc3)oc2c1)c1ccncc1 (stereo unspecified) | inconclusive: 29.1 µM [cytotoxic, single point] |
| COc1ccc2cc(CCNC(=O)C(C)(C)C)c(=O)[nH]c2c1 | inconclusive: 3.26 µM [cytotoxic, partial curve, poor fit] |
| O=C(CC1C(=O)N(c2ccccc2)C(=S)N1c1ccccc1)c1ccccc1 (stereo unspecified) | inconclusive: 0.0073 µM [rising, full curve] |
| Cc1cc(C)n2nc(SCC(=O)N3CC(C)CC(C)C3)nc2n1 (stereo unspecified) | inactive |

| SMILES | Potency |
| --- | --- |
| CCOC(=O)Nc1ccc2c3c(cccc13)-c1ccccc1-2 | inconclusive: 25.9 µM [cytotoxic, single point] |
| Cc1cccc(C)c1NC(=O)CCCSc1nc2ccccc2s1 | inactive |
| COc1cc(C2NC(=S)NC(c3ccccc3)=C2C(C)=O)ccc1O (stereo unspecified) | inactive |
| O=c1c(Cl)c(N2CCCCC2)cnn1-c1nc2ccccc2[nH]1 | inconclusive: 10.3 µM [cytotoxic, partial curve] |
| Cc1cc(NC(c2nnc(-c3ccccc3)o2)c2ccccc2F)ccc1Br (stereo unspecified) | inconclusive: 23.1 µM [cytotoxic, partial curve, poor fit] |
| CCCC(=O)N1CCN(c2nnc(-c3ccccc3)c3ccccc23)CC1 | inactive |
| O=C(OCC(=O)N1CCc2ccccc21)c1c2c(nc3ccccc13)CCCC2 | inconclusive: 29.1 µM [cytotoxic, single point] |
| CCC(O)(CC)C(=O)NN(C(=O)CCl)c1ccccc1 | inconclusive: 29.1 µM [cytotoxic, single point] |
| CCS(=O)(=O)Nc1cc(-c2cn3ccc(C)cc3n2)ccc1C | inactive |
| O=C(NCCCc1ccccc1)C1CC(=O)N(c2ccc3c(c2)OCCO3)C1 (stereo unspecified) | inactive |
| C=CCCC(=O)Nc1ccc(Br)cn1 | inconclusive: 25.9 µM [cytotoxic, single point] |
| Nc1nc(NCc2ccco2)nc(N2CCCC2)c1[N+](=O)[O-] | inactive |
| CC(=O)Nc1ccc(/C=C/c2ccncc2)cc1 | inconclusive: 20.6 µM [rising, single point] |
| CC(=O)c1csc(COc2cc(Cl)cc(Cl)c2)n1 | inconclusive: 25.9 µM [cytotoxic, partial curve, poor fit] |
| CC1(C)CC(=O)C2=C(C1)NC(SCC(=O)Nc1ccccc1)=C(C#N)C21CCCCC1 | inconclusive: 29.1 µM [cytotoxic, single point] |
| COc1ccc(S(=O)(=O)Nc2ccc3c(c2)n(C)c(=O)n3C)cc1C | inconclusive: 20.6 µM [cytotoxic, single point] |
| CCC(=O)Nc1sc2c(c1C(=O)Nc1ccccc1C)CCC(C)C2 (stereo unspecified) | inactive |
| CC(=O)c1ccc(N2CCN(C(=O)c3ccc4[nH]c(C)c(C)c4c3)CC2)cc1 | inconclusive: 20.6 µM [cytotoxic, single point] |
| O=C(NNC(=O)c1ccc(O)cc1O)c1ccc(Cl)cc1 | inconclusive: 23.1 µM [cytotoxic, single point] |
| CCOc1ccc(CN2CCN(S(=O)(=O)c3ccc(NC(C)=O)cc3)CC2)cc1 | inconclusive: 29.1 µM [cytotoxic, single point] |
| COc1cc(OC)cc(C(=O)N[C@H](C(=O)NC2=NCCS2)C(C)C)c1 | inactive |
| Cc1nc(N)nc(N)c1-c1ccc(Cl)c(Cl)c1 | inconclusive: 23.1 µM [cytotoxic, partial curve, poor fit] |
| Cc1nn(-c2ccccc2)c(N2CCCC2)c1/C=N/NC(=O)c1ccccc1O | inactive |

Reprinted at random: 4 entries already listed, in no set order.

| SMILES | Potency |
| --- | --- |
| O=c1c(Cl)c(N2CCCCC2)cnn1-c1nc2ccccc2[nH]1 | inconclusive: 10.3 µM [cytotoxic, partial curve] |
| CCS(=O)(=O)Nc1cc(-c2cn3ccc(C)cc3n2)ccc1C | inactive |
| CC1(C)CC(=O)C2=C(C1)NC(SCC(=O)Nc1ccccc1)=C(C#N)C21CCCCC1 | inconclusive: 29.1 µM [cytotoxic, single point] |
| Cc1nn(-c2ccccc2)c(N2CCCC2)c1/C=N/NC(=O)c1ccccc1O | inactive |
